Data as given in PubChem BioAssay AID652272 (Drosophila RNAi Screening Center, 2013)
The screen tested about 21,000 reagents; this is a random part of those with a known target gene and a result. In the full data, 503 (2.4%) are marked active. 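Raw plate light values, not normalised; calls rest on replicate z-scores that were not deposited; hits include reporter decreases as well as increases.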 A number with no mark means an inactive call. The numbers tell different reagents against one gene apart. A plus sign joins genes that one reagent is predicted to hit. The record does not give: the amount of reagent, the time to read-out.

Aim: 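Finding fly genes that regulate Hedgehog signal transduction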 (primary screen)
System: Drosophila clone 8 (Cl8) cells
Reagent: long dsRNA against Drosophila genes
Measured: 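Plate reader light from a firefly reporter under a ptc promoter fragment that responds to Hedgehog, with Renilla light as transfection reference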
Scale: firefly Hh reporter signal: higher = more ptc reporter light; Renilla reference signal: higher = more Renilla control light
Active means: 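Hit when the z-score averaged over two replicates is under -2 or over +3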
Meaning of the calls: active = hit: reporter lowered or raised; inactive = not a hit

no.	predicted target	reagent	firefly Hh reporter signal, replicate 1	firefly Hh reporter signal, replicate 2	firefly Hh reporter signal, replicate 3	Renilla reference signal, replicate 1	Renilla reference signal, replicate 2
1	Lcp3	1	1.04e5	63576		2567	5497
2	CG10344	1	90449	94278		1352	7004
3	HmgZ	1	1.34e5	2.71e5		1209	14896
4	HmgZ	2	98633	50448		2968	6227
5	GNBP2	1	94997	51973		3667	1428
6	Gnf1	1	78673	1.01e5		2896	2006
7	ais	1	1.17e5	48931		3949	1939
8	CG31957	1	4.78e5	1.45e5		26868	7408
9	CG2162	1	74918	68048		2903	2519
10	CG4133	1	48427	57779		1585	1577
11	run	1	1.59e5	1.99e5		4100	3995
12	aub	1	1.23e5	1.03e5		4388	4147
13	ppk18	1	77985	52292		2199	5033
14	ppk18	2	1.01e5	57146		2555	5203
15	snama	1	97997	42538		4643	2103
16	lbk	1	1.66e5	99863		6675	4012
17	Diap1	1	3968 (active)	2784		309	131
18	CG3376	1	1.17e5	89208		3440	3488
19	CG6290	1	1.60e5	1.16e5		3749	2773
20	CG34029	1	1.31e5	2.43e5		3802	11296
21	Abd-B	1	92157	1.05e5		2628	2598
22	Abd-B	2	68032	52626		1968	1488
23	Mon1	1	1.14e5	45805		3104	4969
24	CG34430	1	80122	48873		1954	4582
25	CG12111	1	1.13e5	3.92e5		3737	13088
26	CG9300	1	82473	96709		4765	4800
27	snoRNA:Me28S-C3227a + snoRNA:Me18S-A1061 + snoRNA:Me28S-C3227b + 7 more	1	8.17e5	1.43e5	1.30e5	5169	3920
28	M7BP	1	89812	2.13e5		2352	8843
29	M7BP	2	1.24e5	2.58e5		3696	9655
30	M7BP	3	94818	53189		3745	1864
31	M7BP	4	93403	56227		2336	4177
32	M7BP	5	1.13e5	73226		3018	5834
33	CG3598	1	1.06e5	3.12e5		4330	11425
34	sli	1	54261	62282		754	3884

Next part (6 carried over from the part before).
no.	predicted target	reagent	firefly Hh reporter signal, replicate 1	firefly Hh reporter signal, replicate 2	firefly Hh reporter signal, replicate 3	Renilla reference signal, replicate 1	Renilla reference signal, replicate 2
29	M7BP	2	1.24e5	2.58e5		3696	9655
30	M7BP	3	94818	53189		3745	1864
31	M7BP	4	93403	56227		2336	4177
32	M7BP	5	1.13e5	73226		3018	5834
33	CG3598	1	1.06e5	3.12e5		4330	11425
34	sli	1	54261	62282		754	3884
35	Herp	1	1.09e5	57337		3312	2425
36	CG6678	1	1.07e5	79319		4328	3347
37	prd	1	96537	60129		4199	3431
38	CG7631	1	1.02e5	64105		2882	4949
39	bcd + CR14578	1	43035	2.28e5		739	9097
40	sing + Axs	1	80278	1.73e5		2965	8188
41	ergic53	1	46778	62352		5783	3752
42	JMJD5	1	85392	68027		2613	5072
43	Fer3	1	1.07e5	78240		4576	3204
44	Tre1	1	90480	47200		6097	1978
45	RpS6	1	24785 (active)	25376		1226	1211
46	pns	1	65764	55253		2221	4812
47	CG31688 + CG31687	1	59205	26357		1723	2848
48	CG7741	1	1.58e5	54480		4196	4149
49	l(2)10685	1	1.05e5	55816		4288	2376
50	Sar1	1	1.61e5	98116		7450	4152
51	CG13243	1	92560	53492		2147	3995
52	CG14540	1	3.39e5	64058		21610	5973
53	CG17287	1	72856	43462		1933	3224
54	Cyp6a21	1	1.17e5	62230		2509	4761
55	Usp16-45	1	1.06e5	73928		2306	1610
56	CG32204	1	2.07e5			3948	
57	CG42402	1	75910	3.27e5		2368	13660
